Here are results for two molecules from PMC2958145.

Results are given in words; binding and its absence hold for the method and conditions named. For part of these data: Binding can be weak; no strength is given.

Experiment [1] deals with CRASP-5 expressed by transformed B. garinii strain G1/pCRASP-5 (B. burgdorferi s.s. strain LW2). In words: serum adsorption assay on live spirochetes; 1×10^9 borreliae incubated in NHS with 34 mM EDTA 1 h at room temperature, four washes with PBSA 0.05% Tween20, eluted with 100 mM glycine-HCl pH 2.0; Western blot with mAb VIG8 or JHD 7.10. On the technique in general: A western blot detects proteins with antibodies after separation by electrophoresis.

The target of experiment [2] is recombinant polyhistidine-tagged ErpQ. The experiment is described as follows: ELISA; CRASP-3, CRASP-5, ErpX, ErpQ (5 µg/ml) coated on microtiter plates; 33 µM CFH, CFHR1, CFHR2 or CFHR5 added 1 h at RT; detected with goat CFH antiserum or JHD 7.10; both purified. (ELISA stands for enzyme-linked immunosorbent assay.)
Experiment [3] deals with recombinant polyhistidine-tagged ErpX. Described as above.

B1: factor H-related protein 5 (CFHR5) of human serum (protein, UniProt Q9BXR6 19-569)
chain: EGTLCDFPKIHHGFLYDEEDYNPFSQVPTGEVFYYSCEYNFVSPSKSFWTRITCTEEGWSPTPKCLRMCSFPFVKNGHSESSGLIHLEGDTVQIICNTGYSLQNNEKNISCVERGWSTPPICSFTKGECHVPILEANVDAQPKKESYKVGDVLKFSCRKNLIRVGSDSVQCYQFGWSPNFPTCKGQVRSCGPPPQLSNGEVKEIRKEEYGHNEVVEYDCNPNFIINGPKKIQCVDGEWTTLPTCVEQVKTCGYIPELEYGYVQPSVPPYQHGVSVEVNCRNEYAMIGNNMITCINGIWTELPMCVATHQLKRCKIAGVNIKTLLKLSGKEFNHNSRIRYRCSDIFRYRHSVCINGKWNPEVDCTEKREQFCPPPPQIPNAQNMTTTVNYQDGEKVAVLCKENYLLPEAKEIVCKDGRWQSLPRCVESTAYCGPPPSINNGDTTSFPLSVYPPGSTVTYRCQSFYKLQGSVTVTCRNKQWSEPPRCLDPCVVSEENMNKNNIQLKWRNDGKLYAKTGDAVEFQCKFPHKAMISSPPFRAICQEGKFEYPICE
Regarding B1, the binding result in experiment [1] is “binds”.

B2: purified recombinant CFHR5 (protein, UniProt Q9BXR6 19-569)
chain: EGTLCDFPKIHHGFLYDEEDYNPFSQVPTGEVFYYSCEYNFVSPSKSFWTRITCTEEGWSPTPKCLRMCSFPFVKNGHSESSGLIHLEGDTVQIICNTGYSLQNNEKNISCVERGWSTPPICSFTKGECHVPILEANVDAQPKKESYKVGDVLKFSCRKNLIRVGSDSVQCYQFGWSPNFPTCKGQVRSCGPPPQLSNGEVKEIRKEEYGHNEVVEYDCNPNFIINGPKKIQCVDGEWTTLPTCVEQVKTCGYIPELEYGYVQPSVPPYQHGVSVEVNCRNEYAMIGNNMITCINGIWTELPMCVATHQLKRCKIAGVNIKTLLKLSGKEFNHNSRIRYRCSDIFRYRHSVCINGKWNPEVDCTEKREQFCPPPPQIPNAQNMTTTVNYQDGEKVAVLCKENYLLPEAKEIVCKDGRWQSLPRCVESTAYCGPPPSINNGDTTSFPLSVYPPGSTVTYRCQSFYKLQGSVTVTCRNKQWSEPPRCLDPCVVSEENMNKNNIQLKWRNDGKLYAKTGDAVEFQCKFPHKAMISSPPFRAICQEGKFEYPICE
In the case of B2, the binding entry in experiment [2] and in experiment [3] was “no binding (tested: 33 µM)” throughout.
